The supplement of paper PMC11732987, “Enantioselective OTUD7B fragment discovery through chemoproteomics screening and high-throughput optimisation” (Communications Chemistry, 2025)
The other results are listed elsewhere or left out. The data scatter; read single values as rough.

The chains behind the UniProt entries cited, without tags or fusion partners. Where a name states a change or a piece, a line headed by the entry shows the natural chain unless it says otherwise.
UniProt Q8N9M5: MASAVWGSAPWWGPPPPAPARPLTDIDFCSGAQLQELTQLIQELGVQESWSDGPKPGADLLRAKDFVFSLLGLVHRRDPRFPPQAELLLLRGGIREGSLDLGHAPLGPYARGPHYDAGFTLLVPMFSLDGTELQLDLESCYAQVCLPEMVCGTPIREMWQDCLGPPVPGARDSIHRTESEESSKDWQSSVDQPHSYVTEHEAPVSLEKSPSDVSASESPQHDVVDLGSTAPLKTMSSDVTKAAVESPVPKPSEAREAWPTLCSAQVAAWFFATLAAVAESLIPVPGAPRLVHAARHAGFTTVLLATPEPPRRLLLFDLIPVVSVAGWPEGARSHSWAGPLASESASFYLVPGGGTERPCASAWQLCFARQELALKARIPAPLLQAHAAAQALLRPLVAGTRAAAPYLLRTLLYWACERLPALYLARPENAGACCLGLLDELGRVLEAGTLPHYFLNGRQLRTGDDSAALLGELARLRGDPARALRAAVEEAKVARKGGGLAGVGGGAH
UniProt Q9ULW0: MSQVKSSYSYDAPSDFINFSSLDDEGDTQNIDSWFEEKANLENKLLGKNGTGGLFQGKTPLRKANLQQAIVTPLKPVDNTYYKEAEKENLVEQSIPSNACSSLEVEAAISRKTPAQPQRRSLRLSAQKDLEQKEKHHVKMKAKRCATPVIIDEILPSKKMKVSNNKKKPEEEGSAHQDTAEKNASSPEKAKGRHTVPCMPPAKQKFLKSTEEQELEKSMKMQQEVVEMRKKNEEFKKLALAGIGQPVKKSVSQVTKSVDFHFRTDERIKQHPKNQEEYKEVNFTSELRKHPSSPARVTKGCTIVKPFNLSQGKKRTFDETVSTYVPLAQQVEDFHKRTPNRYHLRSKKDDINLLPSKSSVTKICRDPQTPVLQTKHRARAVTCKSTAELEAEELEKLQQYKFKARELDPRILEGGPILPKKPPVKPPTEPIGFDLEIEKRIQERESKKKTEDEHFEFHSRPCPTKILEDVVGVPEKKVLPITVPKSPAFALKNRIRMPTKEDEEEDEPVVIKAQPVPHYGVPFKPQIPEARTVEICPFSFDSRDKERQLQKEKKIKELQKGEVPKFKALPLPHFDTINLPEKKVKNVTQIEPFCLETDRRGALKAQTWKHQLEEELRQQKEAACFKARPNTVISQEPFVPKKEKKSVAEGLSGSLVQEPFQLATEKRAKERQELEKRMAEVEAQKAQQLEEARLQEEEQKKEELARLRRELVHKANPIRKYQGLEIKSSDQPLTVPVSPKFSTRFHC
UniProt Q96F44: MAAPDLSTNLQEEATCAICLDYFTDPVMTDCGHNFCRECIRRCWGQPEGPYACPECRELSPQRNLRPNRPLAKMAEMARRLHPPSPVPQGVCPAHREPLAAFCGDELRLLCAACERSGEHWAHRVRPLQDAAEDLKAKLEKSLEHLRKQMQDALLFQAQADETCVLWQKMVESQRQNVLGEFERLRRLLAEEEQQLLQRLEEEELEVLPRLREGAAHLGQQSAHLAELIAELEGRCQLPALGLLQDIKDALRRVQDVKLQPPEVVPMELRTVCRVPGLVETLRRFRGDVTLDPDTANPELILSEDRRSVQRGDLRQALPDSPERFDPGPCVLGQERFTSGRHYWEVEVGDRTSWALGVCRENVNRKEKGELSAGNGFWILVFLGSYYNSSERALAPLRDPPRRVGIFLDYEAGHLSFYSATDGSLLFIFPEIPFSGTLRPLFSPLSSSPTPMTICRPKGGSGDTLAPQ
UniProt Q9C0C2: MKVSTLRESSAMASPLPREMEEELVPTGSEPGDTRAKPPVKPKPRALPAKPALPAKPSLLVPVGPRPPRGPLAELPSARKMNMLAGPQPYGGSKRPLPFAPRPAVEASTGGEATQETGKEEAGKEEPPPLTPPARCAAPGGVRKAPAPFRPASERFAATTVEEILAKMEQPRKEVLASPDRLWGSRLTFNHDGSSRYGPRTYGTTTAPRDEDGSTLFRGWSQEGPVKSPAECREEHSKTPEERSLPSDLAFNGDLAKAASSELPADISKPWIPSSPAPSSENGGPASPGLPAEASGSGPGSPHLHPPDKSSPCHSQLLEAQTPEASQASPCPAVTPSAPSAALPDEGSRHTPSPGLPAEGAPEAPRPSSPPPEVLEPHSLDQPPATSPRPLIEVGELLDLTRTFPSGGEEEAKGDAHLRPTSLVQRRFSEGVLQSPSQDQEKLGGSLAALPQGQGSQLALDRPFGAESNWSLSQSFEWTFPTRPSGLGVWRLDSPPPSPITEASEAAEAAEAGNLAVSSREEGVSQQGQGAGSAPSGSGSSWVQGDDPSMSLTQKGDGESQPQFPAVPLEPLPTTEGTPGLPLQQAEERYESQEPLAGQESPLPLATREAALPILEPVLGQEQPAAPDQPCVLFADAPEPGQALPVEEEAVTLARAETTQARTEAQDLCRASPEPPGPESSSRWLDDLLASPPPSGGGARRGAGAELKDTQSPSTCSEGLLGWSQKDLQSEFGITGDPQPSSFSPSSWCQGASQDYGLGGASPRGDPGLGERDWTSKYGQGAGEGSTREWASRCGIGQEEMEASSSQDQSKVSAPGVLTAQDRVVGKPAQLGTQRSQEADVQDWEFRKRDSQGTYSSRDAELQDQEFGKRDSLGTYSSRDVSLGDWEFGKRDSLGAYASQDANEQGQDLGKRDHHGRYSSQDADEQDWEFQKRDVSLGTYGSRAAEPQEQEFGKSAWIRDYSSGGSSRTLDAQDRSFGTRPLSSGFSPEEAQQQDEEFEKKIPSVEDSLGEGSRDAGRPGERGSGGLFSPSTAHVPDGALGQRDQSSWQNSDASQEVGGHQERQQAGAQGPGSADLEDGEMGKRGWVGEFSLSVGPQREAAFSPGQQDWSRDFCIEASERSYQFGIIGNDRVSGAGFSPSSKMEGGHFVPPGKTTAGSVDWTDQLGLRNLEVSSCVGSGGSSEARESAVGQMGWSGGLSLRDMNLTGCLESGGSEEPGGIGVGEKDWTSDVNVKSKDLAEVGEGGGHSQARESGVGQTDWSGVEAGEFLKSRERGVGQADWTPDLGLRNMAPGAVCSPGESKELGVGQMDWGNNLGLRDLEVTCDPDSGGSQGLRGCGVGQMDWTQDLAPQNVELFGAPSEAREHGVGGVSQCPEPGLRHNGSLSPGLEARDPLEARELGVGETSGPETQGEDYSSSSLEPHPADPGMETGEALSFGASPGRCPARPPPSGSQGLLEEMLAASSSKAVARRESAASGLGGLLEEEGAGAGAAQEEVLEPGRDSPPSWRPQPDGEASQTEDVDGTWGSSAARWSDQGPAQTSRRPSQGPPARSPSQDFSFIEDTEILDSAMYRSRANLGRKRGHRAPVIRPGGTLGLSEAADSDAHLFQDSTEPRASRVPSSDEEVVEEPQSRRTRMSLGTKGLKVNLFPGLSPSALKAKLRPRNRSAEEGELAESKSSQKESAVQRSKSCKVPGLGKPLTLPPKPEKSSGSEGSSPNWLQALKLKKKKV

Experiments:
[1] = compound: ClCC(=O)N[C@@H]1CCCc2ccccc12; test: log2 mean competition ratio of IA-DTB cysteine labelling (DMSO/compound) (log2 ratio); higher = stronger cysteine engagement by compound; conditions: treatment time: 4 h, cell line lysate: HEK293T
Protocol: (§1)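 IA-DTB competitive cysteine chemoproteomics in HEK293T RIPA lysate. Lysates were treated with compound 29 or 30 at 50 or 200 µM for 4 h, then IA-DTB (500 µM, 1 h), trypsin-digested, NeutrAvidin-enriched and analysed by diaPASEF. Competition ratio = intensity DMSO / intensity compound (n=4 treated, n=64 DMSO); binding: mean log2 CR ≥ 1 and p ≤ 0.05 plus QC filters. Target is the cysteine site.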

[2] = compound: ClCC(=O)N[C@H]1CCCc2ccccc12; test: as above; conditions: treatment time: 4 h, cell line lysate: HEK293T
Protocol: as §1

Row | Target | log2 mean competition ratio ([1]; 50 µM) | log2 mean competition ratio ([1]; 200 µM) | log2 mean competition ratio ([2]; 50 µM) | log2 mean competition ratio ([2]; 200 µM)
1 | TMEM102 C162 (UniProt Q8N9M5) | 0.271 | -0.0805 | -0.0212 | 0.116
2 | TPX2 C536 (UniProt Q9ULW0) | 0.0428 | 0.00957 | 0.0438 | 0.256
3 | TRIM11 C330 (UniProt Q96F44) | -0.157 | -0.232 | -0.192 | -0.15
4 | TMPO C330 | -0.123 | -0.141 | 0.343 | 0.146
5 | TMEM131L C1241 | 0.254 | 0.424 | -0.513 | 0.14
6 | TNKS1BP1 C794 (UniProt Q9C0C2) | 0.211 | -0.154 | 0.733 | -0.0538
